For one molecule, binding results are on record in publication PMC4344508.

Results are given in words; binding and its absence hold for the method and conditions named. Binding seen in cells or lysates may run through a third protein. A yes stands for co-enrichment or nearness to the bait. Other partners may have been found. Tags and fused reporters may be left off the sequences shown.

The target of this experiment is T1, FLAG-Luzp4 (human) (UniProt Q9P127).
T1 sequence: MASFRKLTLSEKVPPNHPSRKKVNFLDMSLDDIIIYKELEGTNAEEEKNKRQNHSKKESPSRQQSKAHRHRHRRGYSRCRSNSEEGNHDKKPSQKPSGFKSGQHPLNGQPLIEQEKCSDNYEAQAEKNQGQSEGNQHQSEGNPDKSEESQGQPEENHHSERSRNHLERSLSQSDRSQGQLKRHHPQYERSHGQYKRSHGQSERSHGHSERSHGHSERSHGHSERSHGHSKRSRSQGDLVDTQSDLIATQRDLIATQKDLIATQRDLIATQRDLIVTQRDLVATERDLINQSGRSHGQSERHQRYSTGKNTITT
The experiment in a line: affinity purification with mass spectrometry; anti-FLAG agarose IP of FLAG-Luzp4 from Flp-In T-REx 293 stable cells (control: FLAG cell line), elution with 1 M arginine-HCl pH 3.5, LC-MS/MS.

B1: Ars2/Srrt (protein, UniProt Q9BXP5 1-876)
chain: MGDSDDEYDRRRRDKFRRERSDYDRSRERDERRRGDDWNDREWDRGRERRSRGEYRDYDRNRRERFSPPRHELSPPQKRMRRDWDEHSSDPYHSGYEMPYAGGGGGPTYGPPQPWGHPDVHIMQHHVLPIQARLGSIAEIDLGVPPPVMKTFKEFLLSLDDSVDETEAVKRYNDYKLDFRRQQMQDFFLAHKDEEWFRSKYHPDEVGKRRQEARGALQNRLRVFLSLMETGWFDNLLLDIDKADAIVKMLDAAVIKMEGGTENDLRILEQEEEEEQAGKPGEPSKKEEGRAGAGLGDGERKTNDKDEKKEDGKQAENDSSNDDKTKKSEGDGDKEEKKEDSEKEAKKSSKKRNRKHSGDDSFDEGSVSESESESESGQAEEEKEEAEEALKEKEKPKEEEWEKPKDAAGLECKPRPLHKTCSLFMRNIAPNISRAEIISLCKRYPGFMRVALSEPQPERRFFRRGWVTFDRSVNIKEICWNLQNIRLRECELSPGVNRDLTRRVRNINGITQHKQIVRNDIKLAAKLIHTLDDRTQLWASEPGTPPLPTSLPSQNPILKNITDYLIEEVSAEEEELLGSSGGAPPEEPPKEGNPAEINVERDEKLIKVLDKLLLYLRIVHSLDYYNTCEYPNEDEMPNRCGIIHVRGPMPPNRISHGEVLEWQKTFEEKLTPLLSVRESLSEEEAQKMGRKDPEQEVEKFVTSNTQELGKDKWLCPLSGKKFKGPEFVRKHIFNKHAEKIEEVKKEVAFFNNFLTDAKRPALPEIKPAQPPGPAQILPPGLTPGLPYPHQTPQGLMPYGQPRPPILGYGAGAVRPAVPTGGPPYPHAPYGAGRGNYDAFRGQGGYPGKPRNRMVRGDPRAIVEYRDLDAPDDVDFF
On to B1, for which the binding result was “binds”.
